Experimental data reported in PubChem BioAssay AID539 (SRMLSC, 2006).
The other results are listed elsewhere or left out. Some tests of the compounds listed are not included; inactive here does not mean inactive elsewhere.

Test system: phosphomevalonate kinase (Streptococcus pneumoniae D39)
Assay: S. pneumoniae PMK inhibitors, primary screen, biochemical, mevalonate pathway, pilot trial included (AID 539);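 further: 0% = full reaction with DMSO carrier and 100% = background rate without enzyme reaction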
Conditions: purified PMK, PK/LDH-coupled NADH absorbance 340 nm; measured here: pilot screen replicates; at 10 µM; stronger effect = higher value

**Q.** How did the inhibition turn out when `O=C(OC1CN2CCC1CC2)C(CO)(c1ccccc1)c1ccccc1` (stereo unspecified) was run?
**A.** The inhibition was 6%.
